The list shows a part of the results.

The assay in a line: insulin gene promoter suppression in islet cells – imaging, TRM-6 cells (human fetal islet line), eGFP reporter, cell count, primary screen (AID 1273;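 also: cells exposed to compound for 48 h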). The settings on record: measured here: cell count, toxicity, at 2 µM, reporter expression induced with tamoxifen.
In turn, `CCOc1ncccc1C(=O)NCC1(N2CCOCC2)CCCCC1` yielded a normalized cell count of 111%.
`CC(C)(C)OC(=O)N1CCC(Nc2ccccc2)CC1` showed a normalized cell count of 78.7%.
As for `CCC(CO)(C(=O)OC1CN2CCC1CC2)c1ccccc1` (centres undefined), the figure is 124%; as for `CCN1CCC(Nc2cccc(F)c2)CC1`, 90.3%.
As for `CN(C)c1ccc(C(=O)NCC2(N3CCCCC3)CCCCC2)cc1`, the figure is 77.5%; as for `N#Cc1ccc(C(=O)NCC2(N3CCCCC3)CCCCC2)cc1`, 119%; as for `c1ccc(CN2CCC(Nc3ccccc3)CC2)cc1`, 84.5%.
`COc1ccc(C(=O)NCC2(N3CCOCC3)CCCCC2)cc1OC`: the normalized cell count was 137%.
To `N/C(=N\O)c1c(N)no[n+]1[O-]` belongs 67.8%; to `O=C(OC1CN2CCC1CC2)C1c2ccccc2C=Cc2ccccc21` (centres undefined), 111%.
To `COc1ccc(CN(CCCl)CCCl)cc1Cl` belongs 88.1%; to `CC(C)c1ccc(NC2CCN(C(=O)OC(C)(C)C)CC2)cc1`, 94.9%; to `CN1CCC(Nc2cccc(F)c2)CC1`, 69.3%.
On to `CN1CCN(CCOC(=O)C(O)(c2ccccc2)c2ccccc2)CC1`, for which the normalized cell count was determined as 215%.
As for `COc1ccc(NC2CCN(C(=O)OC(C)(C)C)CC2)cc1`, the figure is 32.6%; as for `O=C(NCC1(N2CCOCC2)CCCCC1)c1cc(=O)[nH]c2ccccc12`, 115%.
As for `COc1ccc(C(=O)NCC2(N3CCCCC3)CCCCC2)c(OC)c1OC`, the figure is 106%.
In the case of `O=C(NCC1(N2CCOCC2)CCCCC1)c1cc2ccccc2o1`, the normalized cell count worked out at 71.9%.
To `O=C(OC1CN2CCC1CC2)C1c2ccccc2Oc2ccccc21` (centres undefined) belongs 104%.

The record behind these values is PubChem BioAssay AID1273 (Columbia University Molecular Screening Center, 2008).
